Experimental data: patent US10833345B2, “Materials for high-performance aqueous organic redox flow batteries” (UNIVERSITY OF SOUTHERN CALIFORNIA, priority 2016, dated 2020)

Key:
[1] = Charge and discharge cycling of organic redox flow cells; conditions: DHA negative electrolyte, AQDS positive electrolyte; 8 mA/cm^2
Description: In another embodiment, the effects of crossover can be mitigated by using a mixture of positive and negative electrolyte materials in equimolar quantities at both the electrodes. When such a mixture is charged only the positive electrolyte component will undergo oxidation reaction at the positive electrode and the negative electrolyte material will undergo reduction reactions at the negative electrode. Since the concentration of the redox active species is identical even if crossover occurs, the positive electrolyte material occurred to the negative electrolyte side this change in concentration will be balanced by back diffusion. Thus, there might be self-discharge but no permanent capacity loss or compositional change of the electrolyte. Any two redox couples that qualify as positive and negative electrolyte materials can be mixed in equimolar proportions and used as the electrolyte. We have shown the feasibility of rechargeability of this type of mixed materials using DMDHMS and AQDS (FIG. 8). Nearly 100% of the charge input was returned during discharge.
Based on the electrode potentials, the DHA can serve as the negative electrolyte and the AQDS can serve as the positive electrolyte. […] The cell was charged and discharged at 8 mA/cm^2. The value of cell voltage was consistent with that expected from the reduction potential of the redox couples. […]

[2] = Cyclic voltammetry and redox cell states of AMBSA; type: physicochemical

**Q.** With `O=C1c2cccc(O)c2C(=O)c2c(O)cccc21` [DHA, 1,8-dihydroxyanthraquinone] as the compound, how does the charge voltages [1] read?
**A.** Its charge voltages is “about 0.4 V”.

**Q.** And the discharge voltages [1]?
**A.** Its discharge voltages is “about 0.2 V”.

**Q.** For `O=C1c2ccccc2C(=O)c2cc(Cc3cc(O)cc(S(=O)(=O)O)c3O)ccc21` [AMBSA, 2-anthraquinonemethyl (p-benzoquinol sulfonic acid)], which “Cell Voltage” value ([2]; Fully Charged, positive (BQS-AQS), negative (BQSH-AQSH)) is on record?
**A.** The value was 0.8-1.0.

**Q.** What about the “Cell Voltage” value ([2]; Fully Discharged, both electrodes (BQSH-AQS)) of the same compound?
**A.** The value was 0.0.
